From publication PMC10163288
The list shows a part of the results.

B1: il10ra_site1_sap_26_mot_HHH_b2_01583_af2_000000075_0001_44_57_H_._f78fdf3a6b1cc8a037b7c7477770e1ab_0001_0001_0000400021_0000001_1_0001_af2pred_0001 (protein)
chain: SDEEEAERILHKIEELAEEKNDEKIRIAVRFYKELDKAAKELNDEESVKDILYAARALLELVEDS
B2: il10ra_site1_normal_mot_HHH_b1_08697_af2_000000298_0001_1_18_H_._HHH_b2_07088_0001_0000100003_0000002_0_af2pred_dldesign_0_af2pred (protein)
chain: SSSSSKLKKALEYHIEVLKLAKEKGNKDIAKSSYRAAKYLAELLKDPEALKEIEELEKELSSSSS
B3: il10ra_site1_normal_mot_HHH_eva_0077_af2_000000181_0001_44_59_H_._102afcf33129ce529cfca7392e69ce2b_0001_0001_0000200015_0000001_0 (protein)
chain: TEEILEAVEELLRELNSPEAKALLYLIEHQRELGQPPETILRALKAAARILGDPEVLRLIEEAEK
B4: il10ra_site1_sap_15_mot_HHH_b1_02997_000000220_0001_39_52_H_._HHH_b1_04753_0001_0000300022_0000001_1_0001 (protein)
chain: SSSSNREVYELLREAAELHHEGNPEEAEKVLEEAQELAERAGNWLLLAQVRFLQEMIERANSSSS
B5: il10ra_site1_normal_mot_HHH_b1_05357_000000034_0001_23_39_H_._HHH_b2_04745_0001_0000100004_0000001_0_1_af2pred_0001 (protein)
chain: SSSSSELSKRVSELLLRAYALESSGNPEEAQEVLEEARRLVEENNNHRLEHFIRLFERLLSSSSS
B6: il10ra_site1_normal_mot_HHH_b1_02809_af2_000000277_0001_40_57_H_._HHH_b2_02832_0001_0000600039_0000002_0 (protein)
chain: SSSSSDEEVAELYLRAARLIENNDPRAEEVVEELEELAEEKNDPRARLAVQFLKALLESSSSSSS
B7: il10ra_site1_sap_14_mot_4271555111f650dfcc09ceace45bed71_0001_1_000000133_0001_37_51_H_._HHH_b2_01879_af2_0001_0000200003_0000001_0_0001 (protein)
chain: SSSSSEESEIALRFHEAMLRQAIELNNDEAFRSALRALKVLAELYNDPEVRRVIEELEEEFSSSS
B8: il10ra_site1_normal_mot_HHH_b2_03220_af2_000000223_0001_23_40_H_._HHH_b1_06647_af2_0001_0000300016_0000001_0 (protein)
chain: SSSSERERVWELIRRALELLANGNPEEARKVLEEAEELAEELNSENLERQVRLLLEQVEALSSSS
B9: il10ra_site1_sap_15_mot_ems_3hM_3349_af2_000000045_0001_25_42_H_._7f39e2d7389de0c2f60e905c27398b6a_0001_1_0001_0000300016_0000001_0_0001 (protein)
chain: SSSSSSDHRVLRLLMRALRAIFRGDPEEVERLLKEAKEIAEENNDEELEEAIRMVESMLRSSSSS
B10: il10ra_site1_normal_mot_HHH_b1_02997_000000220_0001_39_52_H_._HHH_b2_02536_af2_0001_0000100003_0000002_1_af2pred_dldesign_0_af2pred (protein)
chain: SSSSSSSETEEVLRLIREAAEEEDPEKAKEKLEKALELAKKLGDEILVEVIEYRLSQLSSSSSSS
B11: il10ra_site1_normal_mot_HHH_b2_02337_000000026_0001_38_52_H_._HHH_b2_02232_0001_0000200025_0000002_0 (protein)
chain: SSSSDVEEEVERLIEEAKELLEEGDPRRAAEVLARAVQFAFRSGDQELLRLIWELVQKIANSSSS
B12: il10ra_site1_sap_16_mot_HHH_b1_06789_af2_000000041_0001_1_20_H_._HHH_b2_05269_af2_0001_0000200010_0000002_0_0001 (protein)
chain: SSSSDVEEELRELLKELEELVEEGDEEKFLRVAMEALHLAFQARDEEVLQLLWELAKELASSSSS
B13: il10ra_site1_normal_mot_HHH_b1_00992_000000182_0001_23_40_H_._HHH_b1_03045_0001_0000100005_0000001_0_af2pred_0001 (protein)
chain: SSSSSEEFLRLSLRFAKLLLEDGDPEAARLILRAAVDLAKKEGNEELLKELEELLEEIRGSSSSS
B14: il10ra_site1_sap_23_mot_HHH_b1_04100_af2_000000180_0001_1_19_H_._HHH_b2_02944_0001_0000100014_0000001_0_0001 (protein)
chain: SSSSTDRELAEAALRLIEQLVKNGDPEAAEMHLLALELLVRLTGDPELERILEEAEELVEKSSSS
B15: il10ra_site1_normal_mot_HHH_b2_05591_000000091_0001_1_20_H_._HHH_b1_03846_0001_0000100004_0000002_0_af2pred_0001 (protein)
chain: SSSSSTEEARRALELVREALKIDDPEEVRELLEEAQELAEEGNNEHTLELIEKILKQLDSSSSSS
B16: il10ra_site1_sap_21_mot_HHH_b1_07286_af2_000000054_0001_1_19_H_._HHH_b1_05354_0001_0000100023_0000002_0_0001 (protein)
chain: SSSSDSQEVYELLRRAIELAKEGNPEEARELLKEAEKIAEELNSRVMKVLIEFVEREVEENSSSS
B17: il10ra_site1_sap_21_mot_HHH_b2_00984_000000042_0001_1_20_H_._HHH_b1_03836_0001_0000800039_0000002_0_0001 (protein)
chain: SSSSSEEERYLELTIRFLEWLLRQGDEESIKRMLRALEDIARRLGDEEAEEVVEEVRRELSSSSS
B18: il10ra_site1_normal_mot_HHH_b2_00622_af2_000000153_0001_40_57_H_._HHH_b1_07280_0001_0000600025_0000002_0_af2pred_0001 (protein)
chain: SSSSDVERSVEILREAAEIALKLGDPERARLALEDALVAAREAGNPELAEEIEKLIEEVERSSSS
B19: il10ra_site1_sap_16_mot_HHH_b2_04251_af2_000000037_0001_42_56_H_._HHH_b1_07004_0001_0000200017_0000001_0_0001 (protein)
chain: SSSSDVRERAARVAIEVLRIAFQQSDPEALRAVWELFRRIIEEGDPELLEELEQLLEELRSSSSS
B20: il10ra_site1_normal_mot_HHH_b2_04680_000000215_0001_1_16_H_._HHH_b1_03846_0001_0000500024_0000001_0 (protein)
chain: SSSSSDEEVREAYELAREAFHIEDPEEVRRLLEEALELAEEGNNFALLFAIRLALRDLNSSSSSS
B21: il10ra_site1_normal_mot_HHH_b1_05937_af2_000000262_0001_20_37_H_._HHH_b2_02616_0001_0000500050_0000001_0 (protein)
chain: SSSSDEEERLEQLLEELERLLEEGDRERFLRVAIEILRLAFELGDEEALKIVWELVQKLNSSSSS
B22: il10ra_site1_normal_mot_HHH_b1_01879_000000050_0001_1_18_H_._HHH_b1_07598_af2_0001_0000200009_0000001_0_af2pred_0001 (protein)
chain: SSSSSDEEERFLRLLIEAFQLLENGNPEEAEKVLREAEELAEELNDPAAKQAVEVLLSLLSSSSS
B23: il10ra_site1_sap_17_mot_HHH_b2_04057_000000065_0001_1_20_H_._HHH_b2_05897_0001_0000400029_0000002_0_0001_af2pred_0001 (protein)
chain: SSSSSEEIYKAIRLFALLLRLLERGDEEKVEEVEEELEELAEKYNDRTARAALKLFRERGSSSSS
B24: il10ra_site1_normal_mot_HHH_b2_00475_000000107_0001_44_57_H_._HHH_b2_01109_0001_0000200013_0000001_0 (protein)
chain: SSSSDTREEVVQLLLRAVRLKAEGNPEEAREVLEEAEKVAREGNDEELERYLEIAKHFVNSSSSS
B25: il10ra_site1_normal_mot_HHH_b2_02537_000000065_0001_1_20_H_._HHH_b1_01288_0001_0000500057_0000001_0 (protein)
chain: SSSSSTDEEFEEVKRLIKLLAEARSEEERREIEEEMEELAKHVSEIFRFALEHALRLQRSSSSSS
B26: il10ra_site1_sap_22_mot_HHH_b1_01513_af2_000000021_0001_1_16_H_._HHH_b1_03950_0001_0001000030_0000001_0_0001 (protein)
chain: SSSSDANERIWELLRRALELLAEGDPEEARELIEEAEELAEEANSRVLRKVIEHLLRAVKSSSSS
B27: il10ra_site1_normal_mot_HHH_b1_03333_000000091_0001_1_17_H_._HHH_b1_06365_0001_0000200014_0000001_0 (protein)
chain: SSSSSLYERVKKVIEELIELFKRGNPEEARELAEEMLREVEEAGNTAALFALRHALRLINSSSSS
B28: il10ra_site1_sap_14_mot_HHH_b2_00345_af2_000000013_0001_42_56_H_._HHH_b2_02124_0002_0000500018_0000001_0_0001 (protein)
chain: SSSSDEEVEELEEQIRELLEEGDTERALELIQEMLRVAFRLRDQEAIQAAWELVKSVLENSSSSS
B29: il10ra_site1_normal_mot_513c16ae44941e68898e0f7c259e5a28_0001_1_000000056_0001_35_50_H_._HHH_eva_0144_af2_0001_0000100003_0000002_0 (protein)
chain: SSDPRQIRDLVRAIERLVRQGILDPHFAVRALEALEEDAREVGDEELEELVKEVLEEIEKLISSS
B30: il10ra_site1_sap_19_mot_HHH_b1_00992_000000182_0001_23_40_H_._HHH_b1_02574_0001_0000200023_0000001_0_0001 (protein)
chain: SSSSDEEEELVRAALRLAEQAYENGDPEAAKRLLWAAEFLAREIGDEELEELVERVEEKISSSSS
B31: il10ra_site1_normal_mot_HHH_b1_04065_000000255_0001_41_56_H_._HHH_b2_00788_0001_0000600064_0000002_0 (protein)
chain: SSSSSEEVEELLEEAERLAEEGNPHEASEALFEALRRAFELGDPELLRLVDRVAIELYERLSSSS
B32: il10ra_site1_sap_14_mot_HHH_b2_06846_000000142_0001_38_52_H_._HHH_b2_07255_0001_0000100004_0000002_0_0001 (protein)
chain: SSSSSSSSEVEEEVRRLLEEAEENPERANELLAEALRLAYRHNNKELLREIWEVLHELSSSSSSS
B33: il10ra_site1_sap_12_mot_HHH_b2_06228_000000276_0001_1_15_H_._HHH_b1_06652_0001_0000300012_0000001_0_0001 (protein)
chain: SSSSDEEEIEELLKELEEALRRGDHHLFTRILDRVMKLIEELGDEELAEELQRLFHEFLRKSSSS
B34: il10ra_site1_sap_14_mot_HHH_b1_02464_000000069_0001_1_19_H_._HHH_b1_01491_0001_0000400045_0000001_0_0001 (protein)
chain: SSSSSDASQELMELVKRVSELDQRGDEEEAKELLEEIERLAEEKNNWIARAMVELLHRVLSSSSS
B35: il10ra_site1_normal_mot_HHH_b1_05357_000000034_0001_23_39_H_._HHH_b1_00950_0001_0000100002_0000001_0 (protein)
chain: SSSSDVEELLEEAREATEEGDKQLVSHLLIQAYALAHQKNDPELEELVRRVARELVELLASSSSS
B36: il10ra_site1_normal_mot_HHH_b1_03754_af2_000000016_0001_40_56_H_._HHH_b1_01843_0001_0000300022_0000002_0 (protein)
chain: SSSSSSSAEESVRRLLHAARQLDDEEYVRLSLRFAKFLAEQANDEELEREIEELEERLSSSSSSS
B37: il10ra_site1_sap_27_mot_HHH_b1_03754_af2_000000016_0001_40_56_H_._HHH_b2_03275_0001_0000100008_0000001_0_0001 (protein)
chain: SSSSSDEEIRERVEELIEELEKVSSDEAYELLREAIELAAELNDPELFRLVLEAIREWLHSSSSS

molecular target: il10ra, Q13651; assay: yeast display titration

Apparent Kd, inactive:
B1 no binding seen
B2 no binding seen
B3 no binding seen
B4 no binding seen
B5 no binding seen
B6 no binding seen
B7 no binding seen
B8 no binding seen
B9 no binding seen
B10 no binding seen
B11 no binding seen
B12 no binding seen
B13 no binding seen
B14 no binding seen
B15 no binding seen
B16 no binding seen
B17 no binding seen
B18 no binding seen
B19 no binding seen
B20 no binding seen
B21 no binding seen
B22 no binding seen
B23 no binding seen
B24 no binding seen
B25 no binding seen
B26 no binding seen
B27 no binding seen
B28 no binding seen
B29 no binding seen
B30 no binding seen
B31 no binding seen
B32 no binding seen
B33 no binding seen
B34 no binding seen
B35 no binding seen
B36 no binding seen
B37 no binding seen

A run of entries taken from the entries so far, as a working copy:
Apparent Kd, inactive:
B32 no binding seen
B33 no binding seen
